Results: PMC12124498

By UniProt entry, the sequences of proteins in these tests, tags left out.
UniProt P26368: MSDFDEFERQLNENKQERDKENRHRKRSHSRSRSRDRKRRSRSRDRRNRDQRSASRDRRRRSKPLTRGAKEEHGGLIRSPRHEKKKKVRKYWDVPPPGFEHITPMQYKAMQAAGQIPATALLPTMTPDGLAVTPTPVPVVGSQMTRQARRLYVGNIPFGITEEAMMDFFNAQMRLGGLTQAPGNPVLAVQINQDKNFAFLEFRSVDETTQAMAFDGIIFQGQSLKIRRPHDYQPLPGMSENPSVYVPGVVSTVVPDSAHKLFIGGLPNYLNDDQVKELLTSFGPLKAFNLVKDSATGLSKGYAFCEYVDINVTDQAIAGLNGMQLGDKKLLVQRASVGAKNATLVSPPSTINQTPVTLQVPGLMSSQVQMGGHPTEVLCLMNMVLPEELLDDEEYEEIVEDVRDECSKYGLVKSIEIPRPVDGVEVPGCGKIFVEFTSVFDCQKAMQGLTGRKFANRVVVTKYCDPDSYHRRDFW

B1: ACO2 (protein, UniProt Q99798 28-780)
chain: QRAKVAMSHFEPNEYIHYDLLEKNINIVRKRLNRPLTLSEKIVYGHLDDPASQEIERGKSYLRLRPDRVAMQDATAQMAMLQFISSGLSKVAVPSTIHCDHLIEAQVGGEKDLRRAKDINQEVYNFLATAGAKYGVGFWKPGSGIIHQIILENYAYPGVLLIGTDSHTPNGGGLGGICIGVGGADAVDVMAGIPWELKCPKVIGVKLTGSLSGWSSPKDVILKVAGILTVKGGTGAIVEYHGPGVDSISCTGMATICNMGAEIGATTSVFPYNHRMKKYLSKTGREDIANLADEFKDHLVPDPGCHYDQLIEINLSELKPHINGPFTPDLAHPVAEVGKVAEKEGWPLDIRVGLIGSCTNSSYEDMGRSAAVAKQALAHGLKCKSQFTITPGSEQIRATIERDGYAQILRDLGGIVLANACGPCIGQWDRKDIKKGEKNTIVTSYNRNFTGRNDANPETHAFVTSPEIVTALAIAGTLKFNPETDYLTGTDGKKFRLEAPDADELPKGEFDPGQDTYQHPPKDSSGQHVDVSPTSQRLQLLEPFDKWDGKDLEDLQILIKVKGKCTTDHISAAGPWLKFRGHLDNISNNLLIGAINIENGKANSVRNAVTQEFGPVPDTARYYKKHGIRWVVIGDENYGEGSSREHAALEPRHLGGRAIITKSFARIHETNLKKQGLLPLTFADPADYNKIHPVDKLTIQGLKDFTPGKPLKCIIKHPNGTQETILLNHTFNETQIEWFRAGSALNRMKELQQ
B2: SUGP1 (protein, UniProt Q8IWZ8 1-645)
chain: MSLKMDNRDVAGKANRWFGVAPPKSGKMNMNILHQEELIAQKKREIEAKMEQKAKQNQVASPQPPHPGEITNAHNSSCISNKFANDGSFLQQFLKLQKAQTSTDAPTSAPSAPPSTPTPSAGKRSLLISRRTGLGLASLPGPVKSYSHAKQLPVAHRPSVFQSPDEDEEEDYEQWLEIKVSPPEGAETRKVIEKLARFVAEGGPELEKVAMEDYKDNPAFAFLHDKNSREFLYYRKKVAEIRKEAQKSQAASQKVSPPEDEEVKNLAEKLARFIADGGPEVETIALQNNRENQAFSFLYEPNSQGYKYYRQKLEEFRKAKASSTGSFTAPDPGLKRKSPPEALSGSLPPATTCPASSTPAPTIIPAPAAPGKPASAATVKRKRKSRWGPEEDKVELPPAELVQRDVDASPSPLSVQDLKGLGYEKGKPVGLVGVTELSDAQKKQLKEQQEMQQMYDMIMQHKRAMQDMQLLWEKAVQQHQHGYDSDEEVDSELGTWEHQLRRMEMDKTREWAEQLTKMGRGKHFIGDFLPPDELEKFMETFKALKEGREPDYSEYKEFKLTVENIGYQMLMKMGWKEGEGLGSEGQGIKNPVNKGTTTVDGAGFGIDRPAELSKEDDEYEAFRKRMMLAYRFRPNPLNNPRRPYY
B3: DLAT (protein, UniProt P10515 87-647)
chain: SLPPHQKVPLPSLSPTMQAGTIARWEKKEGDKINEGDLIAEVETDKATVGFESLEECYMAKILVAEGTRDVPIGAIICITVGKPEDIEAFKNYTLDSSAAPTPQAAPAPTPAATASPPTPSAQAPGSSYPPHMQVLLPALSPTMTMGTVQRWEKKVGEKLSEGDLLAEIETDKATIGFEVQEEGYLAKILVPEGTRDVPLGTPLCIIVEKEADISAFADYRPTEVTDLKPQVPPPTPPPVAAVPPTPQPLAPTPSAPCPATPAGPKGRVFVSPLAKKLAVEKGIDLTQVKGTGPDGRITKKDIDSFVPSKVAPAPAAVVPPTGPGMAPVPTGVFTDIPISNIRRVIAQRLMQSKQTIPHYYLSIDVNMGEVLLVRKELNKILEGRSKISVNDFIIKASALACLKVPEANSSWMDTVIRQNHVVDVSVAVSTPAGLITPIVFNAHIKGVETIANDVVSLATKAREGKLQPHEFQGGTFTISNLGMFGIKNFSAIINPPQACILAIGASEDKLVPADNEKGFDVASMMSVTLSCDHRVVDGAVGAQWLAEFRKYLEKPITMLL
B4: MARCKS (protein, UniProt P29966 1-332)
chain: MGAQFSKTAAKGEAAAERPGEAAVASSPSKANGQENGHVKVNGDASPAAAESGAKEELQANGSAPAADKEEPAAAGSGAASPSAAEKGEPAAAAAPEAGASPVEKEAPAEGEAAEPGSPTAAEGEAASAASSTSSPKAEDGATPSPSNETPKKKKKRFSFKKSFKLSGFSFKKNKKEAGEGGEAEAPAAEGGKDEAAGGAAAAAAEAGAASGEQAAAPGEEAAAGEEGAAGGDPQEAKPQEAAVAPEKPPASDETKAAEEPSKVEEKKAEEAGASAAACEAPSAAGPGAPPEQEAAPAEEPAAAAASSACAAPSQEAQPECSPEAPPAEAAE
B5: CBS (protein, UniProt P35520 1-551)
chain: MPSETPQAEVGPTGCPHRSGPHSAKGSLEKGSPEDKEAKEPLWIRPDAPSRCTWQLGRPASESPHHHTAPAKSPKILPDILKKIGDTPMVRINKIGKKFGLKCELLAKCEFFNAGGSVKDRISLRMIEDAERDGTLKPGDTIIEPTSGNTGIGLALAAAVRGYRCIIVMPEKMSSEKVDVLRALGAEIVRTPTNARFDSPESHVGVAWRLKNEIPNSHILDQYRNASNPLAHYDTTADEILQQCDGKLDMLVASVGTGGTITGIARKLKEKCPGCRIIGVDPEGSILAEPEELNQTEQTTYEVEGIGYDFIPTVLDRTVVDKWFKSNDEEAFTFARMLIAQEGLLCGGSAGSTVAVAVKAAQELQEGQRCVVILPDSVRNYMTKFLSDRWMLQKGFLKEEDLTEKKPWWWHLRVQELGLSAPLTVLPTITCGHTIEILREKGFDQAPVVDEAGVILGMVTLGNMLSSLLAGKVQPSDQVGKVIYKQFKQIRLTDTLGRLSHILEMDHFALVVHEQIQYHSTGKSSQRQMVFGVVTAIDLLNFVAAQERDQK
B6: DDX46 (protein, UniProt Q7L014 1-1031)
chain: MGRESRHYRKRSASRGRSGSRSRSRSPSDKRSKRGDDRRSRSRDRDRRRERSRSRDKRRSRSRDRKRLRRSRSRERDRSRERRRSRSRDRRRSRSRSRGRRSRSSSPGNKSKKTENRSRSKEKTDGGESSKEKKKDKDDKEDEKEKDAGNFDQNKLEEEMRKRKERVEKWREEQRKKAMENIGELKKEIEEMKQGKKWSLEDDDDDEDDPAEAEKEGNEMEGEELDPLDAYMEEVKEEVKKFNMRSVKGGGGNEKKSGPTVTKVVTVVTTKKAVVDSDKKKGELMENDQDAMEYSSEEEEVDLQTALTGYQTKQRKLLEPVDHGKIEYEPFRKNFYVEVPELAKMSQEEVNVFRLEMEGITVKGKGCPKPIKSWVQCGISMKILNSLKKHGYEKPTPIQTQAIPAIMSGRDLIGIAKTGSGKTIAFLLPMFRHIMDQRSLEEGEGPIAVIMTPTRELALQITKECKKFSKTLGLRVVCVYGGTGISEQIAELKRGAEIIVCTPGRMIDMLAANSGRVTNLRRVTYVVLDEADRMFDMGFEPQVMRIVDNVRPDRQTVMFSATFPRAMEALARRILSKPIEVQVGGRSVVCSDVEQQVIVIEEEKKFLKLLELLGHYQESGSVIIFVDKQEHADGLLKDLMRASYPCMSLHGGIDQYDRDSIINDFKNGTCKLLVATSVAARGLDVKHLILVVNYSCPNHYEDYVHRAGRTGRAGNKGYAYTFITEDQARYAGDIIKALELSGTAVPPDLEKLWSDFKDQQKAEGKIIKKSSGFSGKGFKFDETEQALANERKKLQKAALGLQDSDDEDAAVDIDEQIESMFNSKKRVKDMAAPGTSSVPAPTAGNAEKLEIAKRLALRINAQKNLGIESQDVMQQATNAILRGGTILAPTVSAKTIAEQLAEKINAKLNYVPLEKQEEERQDGGQNESFKRYEEELEINDFPQTARWKVTSKEALQRISEYSEAAITIRGTYFPPGKEPKEGERKIYLAIESANELAVQKAKAEITRLIKEELIRLQNSYQPTNKGRYKVL
B7: PRPF3 (protein, UniProt O43395 1-683)
chain: MALSKRELDELKPWIEKTVKRVLGFSEPTVVTAALNCVGKGMDKKKAADHLKPFLDDSTLRFVDKLFEAVEEGRSSRHSKSSSDRSRKRELKEVFGDDSEISKESSGVKKRRIPRFEEVEEEPEVIPGPPSESPGMLTKLQIKQMMEAATRQIEERKKQLSFISPPTPQPKTPSSSQPERLPIGNTIQPSQAATFMNDAIEKARKAAELQARIQAQLALKPGLIGNANMVGLANLHAMGIAPPKVELKDQTKPTPLILDEQGRTVDATGKEIELTHRMPTLKANIRAVKREQFKQQLKEKPSEDMESNTFFDPRVSIAPSQRQRRTFKFHDKGKFEKIAQRLRTKAQLEKLQAEISQAARKTGIHTSTRLALIAPKKELKEGDIPEIEWWDSYIIPNGFDLTEENPKREDYFGITNLVEHPAQLNPPVDNDTPVTLGVYLTKKEQKKLRRQTRREAQKELQEKVRLGLMPPPEPKVRISNLMRVLGTEAVQDPTKVEAHVRAQMAKRQKAHEEANAARKLTAEQRKVKKIKKLKEDISQGVHISVYRVRNLSNPAKKFKIEANAGQLYLTGVVVLHKDVNVVVVEGGPKAQKKFKRLMLHRIKWDEQTSNTKGDDDEESDEEAVKKTNKCVLVWEGTAKDRSFGEMKFKQCPTENMAREHFKKHGAEHYWDLALSESVLESTD
B8: DDX42 (protein, UniProt Q86XP3 1-938)
chain: MNWNKGGPGTKRGFGFGGFAISAGKKEEPKLPQQSHSAFGATSSSSGFGKSAPPQLPSFYKIGSKRANFDEENAYFEDEEEDSSNVDLPYIPAENSPTRQQFHSKPVDSDSDDDPLEAFMAEVEDQAARDMKRLEEKDKERKNVKGIRDDIEEEDDQEAYFRYMAENPTAGVVQEEEEDNLEYDSDGNPIAPTKKIIDPLPPIDHSEIDYPPFEKNFYNEHEEITNLTPQQLIDLRHKLNLRVSGAAPPRPGSSFAHFGFDEQLMHQIRKSEYTQPTPIQCQGVPVALSGRDMIGIAKTGSGKTAAFIWPMLIHIMDQKELEPGDGPIAVIVCPTRELCQQIHAECKRFGKAYNLRSVAVYGGGSMWEQAKALQEGAEIVVCTPGRLIDHVKKKATNLQRVSYLVFDEADRMFDMGFEYQVRSIASHVRPDRQTLLFSATFRKKIEKLARDILIDPIRVVQGDIGEANEDVTQIVEILHSGPSKWNWLTRRLVEFTSSGSVLLFVTKKANAEELANNLKQEGHNLGLLHGDMDQSERNKVISDFKKKDIPVLVATDVAARGLDIPSIKTVINYDVARDIDTHTHRIGRTGRAGEKGVAYTLLTPKDSNFAGDLVRNLEGANQHVSKELLDLAMQNAWFRKSRFKGGKGKKLNIGGGGLGYRERPGLGSENMDRGNNNVMSNYEAYKPSTGAMGDRLTAMKAAFQSQYKSHFVAASLSNQKAGSSAAGASGWTSAGSLNSVPTNSAQQGHNSPDSPVTSAAKGIPGFGNTGNISGAPVTYPSAGAQGVNNTASGNNSREGTGGSNGKRERYTENRGSSRHSHGETGNRHSDSPRHGDGGRHGDGYRHPESSSRHTDGHRHGENRHGGSAGRHGENRGANDGRNGESRKEAFNRESKMEPKMEPKVDSSKMDKVDSKTDKTADGFAVPEPPKRKKSRWDS

The binders below were run against U2AF2-TurboID-HA (human) (UniProt P26368) (assay: proximity labelling; U2AF2-TurboID-HA induced with doxycycline for 4 h in mesoderm cells differentiated from hiPSC (CHIR99021, 24 h); biotinylated proteins purified on streptavidin magnetic beads, LC-MS with label-free quantification; hits: Log2ΔLFQ >= 2 and p <= 0.05, mesoderm against pluripotent U2AF2-TurboID samples or against GFP-TurboID).
In the case of B1, the binding is reported as “binds”.
For B2, the binding was “binds”.
With B3 the binding was “binds”.
In the case of B4, the binding is reported as “binds”.
With B5 the binding was “binds”.
B6 was tested, and the binding was “binds”.
B7 was tested, and the binding was “binds”.
B8 was tested, and the binding was “binds”.

No constants are given. Whether binding was seen depends on the method and setting. Binding seen in cells or lysates may run through a third protein. A yes stands for co-enrichment or nearness to the bait. Other partners may have been found.
